{"source": "patent US20240132955A1", "about": "“BENIGN SCAR-FORMING CLEAVABLE LINKERS” (Ultima Genomics, Inc., priority 2021, published 2024)", "system": "nucleic acid template sequence with a homopolymeric sequence of variable length", "assay": "Homopolymer detection linearity in sequencing with DPDS (FIG. 21A)", "format": "biochemical", "note": "A unit is not stated for every read-out."}
{"substance": "dipyridyl disulfide [DPDS]", "values": [{"measurement": "difference between in and out of phase signal", "setting": "base C homopolymers", "result": 0.95}, {"measurement": "difference between in and out of phase signal", "setting": "base G homopolymers", "result": 0.63}, {"measurement": "difference between in and out of phase signal", "setting": "base T homopolymers", "result": 0.82}, {"measurement": "difference between in and out of phase signal", "setting": "homopolymers of base A", "result": 1.38}]}
